# Values from PubChem BioAssay AID652272 (Drosophila RNAi Screening Center, 2013).
# Screen: 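Genome-wide knock-down search for components of Hedgehog signalling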 (primary screen)
# Cells: Drosophila clone 8 (Cl8) cells
# Reagents: long dsRNA against Drosophila genes
# Measured: 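Plate reader light from a firefly reporter under a ptc promoter fragment that responds to Hedgehog, with Renilla light as transfection reference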
# Reading the numbers: firefly Hh reporter signal: higher = more ptc reporter light; Renilla reference signal: higher = more Renilla control light
# Rule for the call: 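Hit when the z-score averaged over two replicates is under -2 or over +3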
# Calls: active = hit: reporter lowered or raised; inactive = not a hit
# The deposit covers about 21,000 reagents; shown is an unselected part of those that have a named target and a result. Of all reagents, 503 (2.4%) are marked active. 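Raw plate light values, not normalised; calls rest on replicate z-scores that were not deposited; hits include reporter decreases as well as increases.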 Unmarked entries are inactive. Not stated in the record: the amount of reagent, the time to read-out.
gene,dsRNA,"firefly Hh reporter signal, replicate 1","firefly Hh reporter signal, replicate 2","firefly Hh reporter signal, replicate 3","Renilla reference signal, replicate 1","Renilla reference signal, replicate 2"
Fcp1 (TFIIF-interacting CTD phosphatase),DRSC04121,99152,53456,,4436,2448
Tsp97E (Tetraspanin 97E),DRSC16019,1.16e5,72080,,2971,2033
otk2 (off-track2),DRSC07303,70721,52371,,1898,3619
Eph (Eph receptor tyrosine kinase),DRSC17164,76838,2.69e5,,1674,9028
ddbt (deadbeat),DRSC07869,1.13e5,2.76e5,,3024,11440
unc-13-4A,DRSC10201,63782,69163,,7885,4886
unc-13-4A,DRSC10202,37835,56843,,5155,4421
unc-13-4A,DRSC10203,15056 (active),9558,,2673,1095
unc-13-4A,DRSC11013,36897,48912,,4392,3699
CG3955,DRSC06859,91532,50609,,4297,1891
Rbbp5 (Retinoblastoma binding protein 5),DRSC11778,84433,1.03e5,,2656,2619
Prp18,DRSC16802,82433,35699,,4057,2072
CG8507,DRSC16435,57691,1.07e5,,2010,3020
l(2)05714 (lethal (2) 05714),DRSC03118,70845,40038,,3553,2344
CG33271,DRSC10583,58749,48320,39911,6176,3421
CG17163,DRSC20901,87020,2.55e5,,1933,10704
L (retired record),DRSC05966,66626,48080,,2035,4416
L (retired record),DRSC05967,52068,23319,,1419,2251
Rae1,DRSC04577,1.09e5,68514,,4204,2499

Look-ups from above.
CG8507 [DRSC16435], Renilla reference signal, replicate 2 = 3020
Entry for CG3955 [DRSC06859] in “firefly Hh reporter signal, replicate 1”: 91532
Under “firefly Hh reporter signal, replicate 1”, unc-13-4A [DRSC10201] shows 63782
L (retired record) [DRSC05966], firefly Hh reporter signal, replicate 2 → 48080

Additional entries follow.
gene,dsRNA,"firefly Hh reporter signal, replicate 1","firefly Hh reporter signal, replicate 2","firefly Hh reporter signal, replicate 3","Renilla reference signal, replicate 1","Renilla reference signal, replicate 2"
Or33c (Odorant receptor 33c),DRSC03388,99921,46290,,1880,3813
CG9795,DRSC12336,1.17e5,90888,,4934,3226
dgo (diego),DRSC06134,1.66e5,1.13e5,,6652,3904
SMC1 (Structural maintenance of chromosomes 1),DRSC16846,6.34e5,87447,,30282,2531
CG3356,DRSC04358,98852,61831,,4325,2752
CG42673,DRSC08989,1.00e5,1.78e5,,2778,7556
CG42673,DRSC08991,30451 (active),57033,,1328,3392
CG42673,DRSC10177,28736,43632,43864,4544,3434
CG42673,DRSC10264,12217,39978,59137,3666,4410
CG42673,DRSC10353,53511,71149,89424,4444,5980
CG42673,DRSC10354,31380,67213,67014,5036,5003
BaraC (Baramicin C),DRSC03885,93645,2.16e5,,1459,10102
CG42820,DRSC02265,74059,53418,,1500,5787
CG15629,DRSC00464,94704,93756,,2627,6410
Ir67b (Ionotropic receptor 67b),DRSC09876,76544,50597,62424,4131,4121
CG42813,DRSC15939,1.42e5,1.01e5,,3378,2592
Cox17 (Cytochrome c oxidase copper chaperone COX17),DRSC20145,1.55e5,3.15e5,,4043,12182
CG31482,DRSC12582,48796,88372,,1415,2470
CG13494,DRSC04139,1.28e5,80624,,3307,6844
AGO1 (Argonaute-1),DRSC05912,75655,52112,,2794,1764
